doi:10.1101/2024.10.21.619337
These are yes or no findings as the source states them, for the method shown. Binding seen in cells or lysates may run through a third protein. Some results given as binding are weak or reduced against the parent protein; the word gives no strength.

Sequences of proteins named here, by UniProt entry; tags and fusion partners are left off.
UniProt P31749: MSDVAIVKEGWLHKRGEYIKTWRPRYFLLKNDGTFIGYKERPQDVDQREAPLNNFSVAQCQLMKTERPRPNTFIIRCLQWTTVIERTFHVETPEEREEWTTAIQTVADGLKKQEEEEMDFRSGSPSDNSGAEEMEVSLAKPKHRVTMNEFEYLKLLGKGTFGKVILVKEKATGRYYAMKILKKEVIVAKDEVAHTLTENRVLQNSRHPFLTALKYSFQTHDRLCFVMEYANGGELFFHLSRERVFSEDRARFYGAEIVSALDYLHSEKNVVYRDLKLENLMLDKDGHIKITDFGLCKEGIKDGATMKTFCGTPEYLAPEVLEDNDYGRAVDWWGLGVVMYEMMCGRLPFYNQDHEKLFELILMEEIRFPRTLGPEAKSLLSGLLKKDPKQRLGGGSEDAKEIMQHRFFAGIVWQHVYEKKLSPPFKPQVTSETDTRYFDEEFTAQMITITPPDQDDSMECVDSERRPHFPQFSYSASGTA

Assays:
[1] = target: PRMT5, endogenous in SW620-L1 cells (human (endogenous in SW620-L1)) (UniProt O14744); experiment: co-IP
Flag-PRMT5 (human) = Flag-PRMT5 (human) (UniProt O14744); experiment: co-IP

Substance | binding [1] | binding (Flag-PRMT5 (human))
AKT1, endogenous in SW620-L1 cells (from UniProt P31749 1-480) (enzyme) | binds | –
Myc-Rheb (from UniProt Q15382 1-184) | – | no binding
